No constants are given. Whether binding was seen depends on the method and setting. In cells and extracts the contact can be indirect. Some results given as binding are weak or reduced against the parent protein; the word gives no strength. For part of these data: Sequences can lack the tags named with a protein. Each block holds one molecule with its values, some of them ahead of it.
Key:
[1] = target: HIF1A (human (endogenous in PLC/PRF/5)) (UniProt Q16665); experiment: co-IP; endogenous; anti-HIF1A immunoprecipitation from PLC/PRF/5 cells (control and C11orf54 knockdown) under control and 100 nM BafA1 treatment for 8 h; IgG as negative control
Flag-HIF1A [2] = target: Flag-HIF1A (UniProt Q16665); experiment: co-IP; anti-Flag immunoprecipitation from 293T cells transfected with Flag-HIF1A or Flag-HIF1A plus pk-Myc-C11orf54 for 48 h; endogenous HSC70 blotted; IgG as negative control
[3] = target: T1, C11orf54 (chromosome 11 open reading frame 54) (human (endogenous in PLC/PRF/5)) (UniProt Q9H0W9); experiment: co-IP; endogenous; anti-C11orf54 immunoprecipitation from PLC/PRF/5 whole-cell lysates, immunoblot; IgG as negative control
T1 sequence: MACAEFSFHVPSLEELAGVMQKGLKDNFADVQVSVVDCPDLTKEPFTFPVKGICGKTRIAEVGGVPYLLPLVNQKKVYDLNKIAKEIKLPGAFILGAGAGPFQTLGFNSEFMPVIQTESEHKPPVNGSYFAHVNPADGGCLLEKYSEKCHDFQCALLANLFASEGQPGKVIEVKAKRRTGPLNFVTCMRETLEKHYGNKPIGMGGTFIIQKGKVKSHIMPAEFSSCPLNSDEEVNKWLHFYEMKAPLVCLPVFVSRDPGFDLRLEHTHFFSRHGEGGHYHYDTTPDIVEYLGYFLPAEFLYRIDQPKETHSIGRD

Sequences of proteins named here, by UniProt entry; tags and fusion partners are left off.
UniProt Q16665: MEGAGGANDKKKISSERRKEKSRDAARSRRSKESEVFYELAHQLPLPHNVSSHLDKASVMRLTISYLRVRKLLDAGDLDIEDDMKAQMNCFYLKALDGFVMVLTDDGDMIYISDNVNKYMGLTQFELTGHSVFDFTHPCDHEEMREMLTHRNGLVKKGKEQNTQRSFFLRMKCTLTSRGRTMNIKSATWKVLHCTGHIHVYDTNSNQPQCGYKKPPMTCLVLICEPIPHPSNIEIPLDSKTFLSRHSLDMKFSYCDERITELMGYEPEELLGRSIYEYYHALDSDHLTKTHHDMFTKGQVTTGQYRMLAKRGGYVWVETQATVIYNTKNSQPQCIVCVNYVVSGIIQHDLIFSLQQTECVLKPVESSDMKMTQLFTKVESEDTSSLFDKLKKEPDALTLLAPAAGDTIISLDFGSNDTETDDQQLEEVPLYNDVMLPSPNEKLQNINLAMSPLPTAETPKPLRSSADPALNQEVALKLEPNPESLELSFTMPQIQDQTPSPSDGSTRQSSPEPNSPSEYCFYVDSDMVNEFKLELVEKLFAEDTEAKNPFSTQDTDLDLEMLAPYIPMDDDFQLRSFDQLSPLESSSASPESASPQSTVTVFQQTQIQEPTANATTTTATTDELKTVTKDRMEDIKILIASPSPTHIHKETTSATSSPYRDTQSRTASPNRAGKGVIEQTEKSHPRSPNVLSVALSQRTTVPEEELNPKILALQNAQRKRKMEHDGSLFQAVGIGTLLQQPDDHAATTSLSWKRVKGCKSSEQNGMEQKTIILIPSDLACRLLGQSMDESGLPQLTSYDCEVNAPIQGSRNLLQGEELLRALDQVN
UniProt P11142: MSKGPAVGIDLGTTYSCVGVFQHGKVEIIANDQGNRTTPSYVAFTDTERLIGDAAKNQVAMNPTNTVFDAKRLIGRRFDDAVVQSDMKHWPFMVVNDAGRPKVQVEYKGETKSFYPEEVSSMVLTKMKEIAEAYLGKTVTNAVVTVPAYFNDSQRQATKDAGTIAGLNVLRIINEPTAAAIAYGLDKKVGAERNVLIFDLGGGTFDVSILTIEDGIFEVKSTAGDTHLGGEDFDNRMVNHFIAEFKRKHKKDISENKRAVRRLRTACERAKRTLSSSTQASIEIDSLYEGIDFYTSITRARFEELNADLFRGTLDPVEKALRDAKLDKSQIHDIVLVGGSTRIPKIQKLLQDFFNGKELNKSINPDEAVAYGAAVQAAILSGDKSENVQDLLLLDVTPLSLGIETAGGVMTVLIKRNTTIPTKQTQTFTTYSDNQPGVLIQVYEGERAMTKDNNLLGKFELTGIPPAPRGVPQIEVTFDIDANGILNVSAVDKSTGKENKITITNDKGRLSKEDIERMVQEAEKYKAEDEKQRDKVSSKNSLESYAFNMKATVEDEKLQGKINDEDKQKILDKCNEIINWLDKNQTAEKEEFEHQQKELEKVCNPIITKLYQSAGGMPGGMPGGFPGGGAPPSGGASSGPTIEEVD

Flag-HIF1A [4] = target: Flag-HIF1A (UniProt Q16665); experiment: co-IP; anti-Flag immunoprecipitation from 293T cells transfected with Flag-HIF1A, HA-HSC70 and gradient pk-Myc-C11orf54 for 48 h; IgG as negative control
HA-HSC70 = HA-HSC70 (UniProt P11142); experiment: as above
[5] = target: heat-shock cognate protein of 70 kDa (HSC70) (human (endogenous in 293T)) (UniProt P11142); experiment: co-IP; anti-Flag immunoprecipitation from 293T cells transfected with Flag-HIF1A or Flag-HIF1A plus pk-Myc-C11orf54 for 48 h; endogenous HSC70 blotted; IgG as negative control

binding [1]: binds
binding (Flag-HIF1A [2]): binds
binding [3]: binds
Molecule: heat-shock cognate protein of 70 kDa (HSC70) (from UniProt P11142 1-646)

binding (Flag-HIF1A [4]): binds
Molecule: HA-HSC70 (from UniProt P11142 1-646)

binding (HA-HSC70): binds
binding [5]: binds
B1: pk-Myc-C11orf54 (protein, UniProt Q9H0W9 1-315)
chain: T1 sequence
